Laboratory results as given in patent US10808008B2, “Aromatic-cationic peptides and uses of same” (Cornell University, priority 2012, dated 2020).

Assay: Fluorescence spectroscopy of labelled peptides with cardiolipin
Type: binding
Details: for λmax without CL / λmax with CL: excitation 350 nm
Excerpt: The peptides 2′,6′-Dmt-D-Arg-[…] (SS-19) and 2′,6′-Dmt-D-Arg-Phe-Lys-Ald-NH2 (SS-37) cationic peptides carry net positive charge at neutral pH. They are expected to associate with anionic phospholipid cardiolipin based on electrostatic interaction. The interaction of small peptides with lipid membranes can been studied using fluorescence spectroscopy (Surewicz and Epand, 1984). […] Polarity-sensitive fluorescent probes were incorporated into the peptides and fluorescence spectroscopy was used to determine if SS-19, SS-37 and SS-36 interact with CL.
The peptide 2′,6′-Dmt-D-Arg-Phe-(atn)Dap-NH2 (SS-19) contains anthraniloyl incorporated into diaminopropionic acid. Anthraniloyl derivatives fluoresce in the 410-420 nm range when excited at 320-330 nm (Hiratsuka T, 1983). The quantum yield of anthraniloyl derivatives is strongly dependent on the local environment, and can increase 5-fold going from water to 80% ethanol, together with a blue shift in the emission maxima (λ max) of <10 nm (Hiratsuka T, 1983). Fluorescence emission spectrum of SS-19 (1 μM) alone, and in the presence of increasing concentrations of CL (5 to 50 μg/ml), was monitored following excitation at 320 nm using Hitachi F-4500 fluorescence spectrophotometer.
The peptide 2′,6′-Dmt-D-Arg-Phe-Lys-Ald-NH2 (SS-37) contains an additional amino acid, aladan (Ald), which has been reported to be particularly sensitive to the polarity of its environment and it has been used to probe the electrostatic character of proteins (Cohen et al., 2002). When excited at 350 nm, λmax shifts from 542 nm in water to 409 nm in heptane, accompanied by a significant increase in quantal yield (Cohen et al., 2001). Fluorescence emission spectrum of SS-37 (1 μM) alone, and in the presence of increasing concentrations of CL, was monitored following excitation at 350 nm. Addition of CL (5 to 50 μg/ml) led to a 3-fold increase in quantal yield of SS-37 as well as a clear blue shift in λ max, from 525 nm without CL to 500 nm with 50 μg/ml CL (FIG. 11B).
The peptide 2′,6′-Dmt-D-Arg-Ald-Lys-NH2 (SS-36) contains Ald in place Phe^3 in SS-02. Fluorescence emission spectrum of SS-36 (1 μM) alone, and in the presence of increasing concentrations of CL, was monitored following excitation at 350 nm. SS-36 was the most sensitive to the addition of CL, with dramatic increase in quantal yield and blue shift observed with much lower added amounts of CL (1.25 to 5 μg/ml). The λmax shifted from 525 nm without CL to 500 nm with as little as 1.25 μg/ml CL, and quantal yield increased by more than 100-fold with the addition of 5 μg/ml of CL (FIG. 11C). […] Accordingly, aromatic-cationic peptides of the present disclosure are useful for the prevention or treatment of diseases or disorders characterized by dysregulation of cardiolipin.
Changes in the emission intensity of the [atn]SS-02 and the [ald]SS-02 were measured using a Hitachi F-4500 fluorescence spectrophotometer. The different solvents used to dissolve the various phospholipids (chloroform, methanol and ethanol) had negligible effect on the fluorescence spectrum of [atn]SS-02 and [ald]SS-02. All experiments were done in low ionic solution (deionized water) to optimize electrostatic interactions of peptides with phospholipids.
Increasing concentrations of cardiolipin (5, 10, 25, and 50 μg/mL) were added to 1 μM [atn]SS-02, and the emission intensity between 350 nm and 500 nm was measured.

Substance	λmax of aladan with cardiolipin (1 μM peptide, cardiolipin 1.25, 2.5, 5 μg/mL, λex 360 nm (Example 21))	λmax without CL (1 μM peptide)	λmax of aladan before cardiolipin (1 μM peptide, λex 360 nm (Example 21))	λmax with CL (1.25 μg/ml CL)	λmax with CL (50 μg/ml CL)
2′,6′-Dmt-D-Arg-Ald-Lys-NH2 [SS-36]	510 nm	525 nm	540 nm	500 nm	
2′,6′-Dmt-D-Arg-Phe-Lys-Ald-NH2 [SS-37]		525 nm			500 nm
